Measured values reported in US20050209104A1, “Dinoflagellate karlotoxins, methods of isolation and uses thereof” (priority 2002, published 2005).
Some results were stated once for a whole list of compounds, not compound by compound.

Tested on: rainbow trout erythrocytes
Experiment: Membrane lipid inhibition assay of KmTx 2 hemolytic activity
Format: cell-based
Details: co-incubation with KmTx 2
Experimental: To assess the inhibitory effects of exogenous membrane lipids on KmTx 2 hemolytic activity, the following sterols and lipids were tested: cholesterol, ergosterol, gymnodinosterol, and both natural and synthetic phosphatidylcholine. Cholesterol (5-cholesten-3β-ol) and L-α-phosphatidylcholine (brain, porcine) were purchased from Avanti Polar Lipids Inc. (Alabaster, Ala.); ergosterol (5,7,22-cholestatrien-24β-methyl-3β-ol) was purchased from Steraloids, Inc. (Newport, R.I.). Synthetic phosphatidylcholine (L-α-lecithin (β-γ-dipalmitoyl) was purchased from Calbiochem (San Diego, Calif.), Gymnodinosterol was isolated from filtered K. micrum (CCMP 2282) cells (isolation described in supplemental materials). KmTx 2: 0, 0.1, 0.5, and 1 μg/ml was added to solutions of Tris buffer +CaCl2 with either: 0, 0.001, 0.01, 0.1, 1 or 10 μM selected sterol or membrane lipid. Stock solutions of toxin and lipid were made in methanol and no more than 1% of each (2% total) was added to any given well. After brief mixing, these solutions were added 1: 1 with a diluted suspension of rainbow trout erythrocytes and hemolytic activity was assessed as described in supplemental materials.

How did the “concentration range at which inhibition of hemolytic activity began” value turn out when `CC(C)CCC[C@@H](C)[C@H]1CC[C@H]2[C@@H]3CC=C4C[C@@H](O)CC[C@]4(C)[C@H]3CC[C@]12C` [cholesterol, 5-cholesten-3β-ol] was run?
Its value is 10 to 100 nM.

`CC(C)[C@@H](C)/C=C/[C@@H](C)[C@H]1CC[C@H]2C3=CC=C4C[C@@H](O)CC[C@]4(C)[C@H]3CC[C@]12C` [ergosterol, 5,7,22-cholestatrien-24β-methyl-3β-ol] was tested. Which “concentration range at which inhibition of hemolytic activity began” value did it give?
Its value is 10 to 100 nM.
